Results are given in words; binding and its absence hold for the method and conditions named. Some binding calls cover weakened binding; strength is not graded here.
Target: IgG constant region-CD21 fusion protein (UniProt P20023)
Assay: ELISA, IgG constant region-CD21 fusion coated, detection with biotinylated anti-C3d antibody

Amino acid sequences for entries named in this document (tags omitted). Residues count along the entry.
UniProt P20023, residues 21-148: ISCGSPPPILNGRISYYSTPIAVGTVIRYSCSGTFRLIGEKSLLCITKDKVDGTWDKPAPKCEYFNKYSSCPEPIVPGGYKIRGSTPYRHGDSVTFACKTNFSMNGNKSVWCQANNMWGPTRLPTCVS
UniProt P01024, residues 1002-1303: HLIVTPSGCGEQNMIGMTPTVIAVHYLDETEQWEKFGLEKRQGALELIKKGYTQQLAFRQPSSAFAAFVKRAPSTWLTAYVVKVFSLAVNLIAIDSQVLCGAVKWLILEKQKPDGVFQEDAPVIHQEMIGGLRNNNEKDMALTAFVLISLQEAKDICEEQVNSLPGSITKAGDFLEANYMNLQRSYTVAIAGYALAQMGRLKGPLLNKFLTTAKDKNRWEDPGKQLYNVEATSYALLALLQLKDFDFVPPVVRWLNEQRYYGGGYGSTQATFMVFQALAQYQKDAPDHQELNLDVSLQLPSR

## human C3d (Calbiochem) (from UniProt P01024 1002-1303) (ligand)
  binding: binds

Reference: US20070104726A1
